{"source": "PubChem BioAssay AID1259308 (NCATS, 2017)", "assay": "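Genes whose loss raises luciferase production in HEK293 cells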 (primary screen)", "cell system": "human HEK293 embryonic kidney cells stably expressing firefly luciferase (HEK-CMV-Luc2-Hygro)", "knock-down reagent": "single siRNA against human genes, 0.8 pmol siRNA per well", "time to read-out": "72 h", "measured": "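Reporter luminescence and viable-cell signal on separate replicate plates, given as percent of non-targeting control and median/MAD z-scores, plus per-cell luciferase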", "scale": "total luciferase, z-score and total luciferase, % of control: higher = more reporter protein produced", "rule for the call": "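An siRNA counts as active if its total luciferase robust z-score exceeds 3; genes with two or more such siRNAs out of three were retested with fresh siRNAs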", "calls": "active = raised luciferase; inactive = no rise", "note": "This is a random part of about 59,000 reagents. About 1,510 of all reagents (2.6%) count as active. 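Calls use total luciferase alone and ignore viability, so some active siRNAs may act by altering cell number.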 Entries without a mark were called inactive. Reagents against one gene are numbered here. Not all columns of the deposit are shown."}
The opening 2 entries, to show the layout:
{"target gene": "CLIP1 (GeneID 6249)", "reagent no.": 1, "total luciferase, z-score": -1.21, "total luciferase, % of control": 57.8}
{"target gene": "CLIP1 (GeneID 6249)", "reagent no.": 2, "total luciferase, z-score": 0.442, "total luciferase, % of control": 90.7}

Results, from the first entry:
{"target gene": "CLIP1 (GeneID 6249)", "reagent no.": 1, "total luciferase, z-score": -1.21, "total luciferase, % of control": 57.8}
{"target gene": "CLIP1 (GeneID 6249)", "reagent no.": 2, "total luciferase, z-score": 0.442, "total luciferase, % of control": 90.7}
{"target gene": "CLIP1 (GeneID 6249)", "reagent no.": 3, "total luciferase, z-score": 0.0698, "total luciferase, % of control": 83.3}
{"target gene": "CPAP (GeneID 55835)", "reagent no.": 1, "total luciferase, z-score": -0.297, "total luciferase, % of control": 76}
{"target gene": "CPAP (GeneID 55835)", "reagent no.": 2, "total luciferase, z-score": 1.22, "total luciferase, % of control": 106}
{"target gene": "CPAP (GeneID 55835)", "reagent no.": 3, "total luciferase, z-score": -0.131, "total luciferase, % of control": 79.3}
{"target gene": "KCNIP3 (GeneID 30818)", "reagent no.": 1, "total luciferase, z-score": 2.01, "total luciferase, % of control": 122}
{"target gene": "KCNIP3 (GeneID 30818)", "reagent no.": 2, "total luciferase, z-score": 0.551, "total luciferase, % of control": 92.8}
{"target gene": "KCNIP3 (GeneID 30818)", "reagent no.": 3, "total luciferase, z-score": -0.225, "total luciferase, % of control": 77.4}
{"target gene": "DCXR (GeneID 51181)", "reagent no.": 1, "total luciferase, z-score": -0.457, "total luciferase, % of control": 72.8}
{"target gene": "DCXR (GeneID 51181)", "reagent no.": 2, "total luciferase, z-score": 0.43, "total luciferase, % of control": 90.4}
{"target gene": "DCXR (GeneID 51181)", "reagent no.": 3, "total luciferase, z-score": -0.0802, "total luciferase, % of control": 80.3}
{"target gene": "TESMIN (GeneID 9633)", "reagent no.": 1, "total luciferase, z-score": "3.73 (active)", "total luciferase, % of control": 156}
{"target gene": "TESMIN (GeneID 9633)", "reagent no.": 2, "total luciferase, z-score": -1.51, "total luciferase, % of control": 51.9}
{"target gene": "TESMIN (GeneID 9633)", "reagent no.": 3, "total luciferase, z-score": -1.31, "total luciferase, % of control": 55.8}
{"target gene": "PXDN (GeneID 7837)", "reagent no.": 1, "total luciferase, z-score": 1.02, "total luciferase, % of control": 102}
{"target gene": "PXDN (GeneID 7837)", "reagent no.": 2, "total luciferase, z-score": 0.305, "total luciferase, % of control": 88}
{"target gene": "PXDN (GeneID 7837)", "reagent no.": 3, "total luciferase, z-score": -1.02, "total luciferase, % of control": 61.6}
{"target gene": "RAC1 (GeneID 5879)", "reagent no.": 1, "total luciferase, z-score": -0.507, "total luciferase, % of control": 71.8}
{"target gene": "RAC1 (GeneID 5879)", "reagent no.": 2, "total luciferase, z-score": 0.0682, "total luciferase, % of control": 83.2}
{"target gene": "RAC1 (GeneID 5879)", "reagent no.": 3, "total luciferase, z-score": 0.668, "total luciferase, % of control": 95.2}
{"target gene": "CHST2 (GeneID 9435)", "reagent no.": 1, "total luciferase, z-score": -0.255, "total luciferase, % of control": 76.8}
{"target gene": "CHST2 (GeneID 9435)", "reagent no.": 2, "total luciferase, z-score": -0.201, "total luciferase, % of control": 77.9}
{"target gene": "CHST2 (GeneID 9435)", "reagent no.": 3, "total luciferase, z-score": -0.641, "total luciferase, % of control": 69.1}
{"target gene": "SAYSD1 (GeneID 55776)", "reagent no.": 1, "total luciferase, z-score": -1.26, "total luciferase, % of control": 56.8}
{"target gene": "SAYSD1 (GeneID 55776)", "reagent no.": 2, "total luciferase, z-score": 0.699, "total luciferase, % of control": 95.8}
{"target gene": "SAYSD1 (GeneID 55776)", "reagent no.": 3, "total luciferase, z-score": 1.45, "total luciferase, % of control": 111}
{"target gene": "SLC16A6 (GeneID 9120)", "reagent no.": 1, "total luciferase, z-score": 0.57, "total luciferase, % of control": 93.2}
{"target gene": "SLC16A6 (GeneID 9120)", "reagent no.": 2, "total luciferase, z-score": 0.35, "total luciferase, % of control": 88.8}
{"target gene": "SLC16A6 (GeneID 9120)", "reagent no.": 3, "total luciferase, z-score": 1.66, "total luciferase, % of control": 115}
{"target gene": "EXOSC2 (GeneID 23404)", "reagent no.": 1, "total luciferase, z-score": -0.527, "total luciferase, % of control": 71.4}
{"target gene": "EXOSC2 (GeneID 23404)", "reagent no.": 2, "total luciferase, z-score": 1.12, "total luciferase, % of control": 104}
{"target gene": "EXOSC2 (GeneID 23404)", "reagent no.": 3, "total luciferase, z-score": "4.85 (active)", "total luciferase, % of control": 178}
{"target gene": "SMARCAL1 (GeneID 50485)", "reagent no.": 1, "total luciferase, z-score": -1.25, "total luciferase, % of control": 57.1}
{"target gene": "SMARCAL1 (GeneID 50485)", "reagent no.": 2, "total luciferase, z-score": 1.3, "total luciferase, % of control": 108}
{"target gene": "SMARCAL1 (GeneID 50485)", "reagent no.": 3, "total luciferase, z-score": -0.669, "total luciferase, % of control": 68.6}
{"target gene": "ST3GAL6 (GeneID 10402)", "reagent no.": 1, "total luciferase, z-score": 0.079, "total luciferase, % of control": 83.5}
{"target gene": "ST3GAL6 (GeneID 10402)", "reagent no.": 2, "total luciferase, z-score": -0.262, "total luciferase, % of control": 76.7}
{"target gene": "ST3GAL6 (GeneID 10402)", "reagent no.": 3, "total luciferase, z-score": 0.0341, "total luciferase, % of control": 82.6}
{"target gene": "ZNF622 (GeneID 90441)", "reagent no.": 1, "total luciferase, z-score": -0.00854, "total luciferase, % of control": 81.7}
{"target gene": "ZNF622 (GeneID 90441)", "reagent no.": 2, "total luciferase, z-score": 1.1, "total luciferase, % of control": 104}
{"target gene": "ZNF622 (GeneID 90441)", "reagent no.": 3, "total luciferase, z-score": 0.428, "total luciferase, % of control": 90.4}
